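Luminescence from an EWS-FLI1 target-promoter (NR0B1) reporter, set against a CMV-promoter reporter, two days after silencing single genes in TC32 Ewing sarcoma cells. Each siRNA was applied at 20 nM. A z-score of the log NR0B1-over-CMV signal, less the median of siRNAs with the same seed; more negative means a stronger specific loss of the NR0B1 reporter.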

This is part of the screen; most of the strongest results are not listed here. Sequences are the guide (antisense) strand, without overhang.

For UUUCCGGUGGGAUGAAUCU against RPA3 the result was seed-corrected z-score -0.08812. For UCUUAAACUGGAGCACUCG against GALK2 the result was seed-corrected z-score -0.2157. UAAGAGUCUGGUGCUUAGG against LOC402715 gave seed-corrected z-score -1.218. With UUAGCAUGUCGUUCACUCC against CCDC83 the assay gave seed-corrected z-score 1.008. With CGUCGGAAAGGGUUGGUGU against RPL13AP6 the assay gave seed-corrected z-score 0.4038.

Result for UGUUGAAACGUGAUGGUUC against TPPP2 was seed-corrected z-score 0.5395. UGGUGGAUCACAAUCCUGC against PCGF3 gave seed-corrected z-score -0.9961. For AUAACGAUCAAACUGAACC against COG6 the result was seed-corrected z-score 0.849. For UUAGCAUUCCGCCCAAGCC against TMEM233 the result was seed-corrected z-score -0.04209. UAUUGAUUUAGGCUGCUGG against LEUTX gave seed-corrected z-score -0.371.

For UUAGUAACUGGAUCAUAGC against IPP the result was seed-corrected z-score -0.1843. For UGCGGUUUGGGAACCACUC against LOC642648 the result was seed-corrected z-score -1.57. With UCAGCGAUCACGAUGAAGC against RPIA the assay gave seed-corrected z-score -1.517. With UUAGCAACUACGCGCAACC against RPL22 the assay gave seed-corrected z-score 0.9422. For UACGCUUUACCUUUAAGUC against H2AFZ the result was seed-corrected z-score 1.605.

Result for UAAUCAGGCACUCCAACAC against HIST1H2APS6 was seed-corrected z-score -0.3244. With AGAUUUUUCUCAUUGCUGG against HOXA2 the assay gave seed-corrected z-score 0.1592. UUCAUAUCGAUCUUGGAUG against FAM49A read seed-corrected z-score -0.6851. With UUUAUGACAGGGAGCACCG against CCR2 the assay gave seed-corrected z-score -0.3526. AACUGGACGAUGAUGCUGC against NIPA1 gave seed-corrected z-score -1.156.

UUUGUUGUGCAGUCUAUAC against TM2D3 read seed-corrected z-score -1.151. Result for AGCAUCUUCACGGCUACGG against FGFR3 was seed-corrected z-score -0.5772. UAGACAUUAGUAAGAGUUC against DERA read seed-corrected z-score 0.312. Result for UUUGCAUCCCUGUUAUAUC against PAWR was seed-corrected z-score -0.09612. For AAGCGUGUUAGCCUGGUCG against KCNN1 the result was seed-corrected z-score -1.474.

With UCUGGUGAGACAGCUGUUG against CABYR the assay gave seed-corrected z-score -0.2322. For UUUUAGUCCAUUCCAACAG against MXD3 the result was seed-corrected z-score 0.4911. With UGCUUUUUAGACGAAAUGU against FAM226B the assay gave seed-corrected z-score -0.6366. AAAGGUCCAGAAGAUGUUC against ZNF169 gave seed-corrected z-score 0.7265. UUCUCUACAGUCUUAACUG against SQRDL read seed-corrected z-score -0.05196.

For AAUUCGUCAAGCUAGUCUC against SDHAF1 the result was seed-corrected z-score -0.1988. For UUCUUUUCCGAUUUGUUAC against DR1 the result was seed-corrected z-score 0.4117. UGAGCAGAAACGAGAAUGU against DBNDD1 read seed-corrected z-score 1.294. For UAAUGAUCUCCUGUUUUCG against CAMK2G the result was seed-corrected z-score -1.874.

3 of the entries, repeated:

{"sirna": "AAAGGUCCAGAAGAUGUUC", "gene": "ZNF169", "seed-corrected z-score": "0.7265"}
{"sirna": "UCUUAAACUGGAGCACUCG", "gene": "GALK2", "seed-corrected z-score": "-0.2157"}
{"sirna": "UGCGGUUUGGGAACCACUC", "gene": "LOC642648", "seed-corrected z-score": "-1.57"}

From PubChem BioAssay record AID1159506 (NCATS, 2015).